In US20160331798A1, “NATURAL PRODUCT INHIBITORS OF 3DG” (Dynamis Pharmaceuticals, Inc., priority 2008, published 2016):

Test: Endogenous 3DG concentrations in natural product and chemical samples (GC-MS)
Conditions: Concentration 100 mM, in PBS

SMILES | Levels of 3DG, 3DG Conc
Cl.N[C@H]1C(O)O[C@H](CO)[C@@H](O)[C@@H]1O (stereo partly drawn) [Glucosamine HCl, D-Glucosamine HCl] | 1011.94 µM
NC[C@H]1CC[C@H](C(=O)O)CC1 [Tranexamic Acid, reference compound] | 54.69 µM
